Assay results published in article PMC4924727.

Target: T1, endogenous USP11 (MDCK cells) (canine (endogenous in MDCK)) (UniProt Q01988)
T1 sequence: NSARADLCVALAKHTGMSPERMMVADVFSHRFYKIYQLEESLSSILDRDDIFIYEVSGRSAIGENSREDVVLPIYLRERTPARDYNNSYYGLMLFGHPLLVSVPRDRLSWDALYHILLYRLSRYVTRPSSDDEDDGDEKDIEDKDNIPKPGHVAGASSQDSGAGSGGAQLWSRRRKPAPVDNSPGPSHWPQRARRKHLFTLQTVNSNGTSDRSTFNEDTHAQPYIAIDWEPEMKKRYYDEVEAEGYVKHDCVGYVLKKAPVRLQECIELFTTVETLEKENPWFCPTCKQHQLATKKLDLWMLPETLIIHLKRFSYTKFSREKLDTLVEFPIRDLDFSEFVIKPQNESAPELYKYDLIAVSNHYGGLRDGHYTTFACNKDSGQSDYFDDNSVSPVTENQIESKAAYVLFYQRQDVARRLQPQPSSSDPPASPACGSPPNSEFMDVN
Assay: co-IP; endogenous proteins of MDCK cell lysates; immunoprecipitation with anti-USP11 or anti-Mgl-1 antibody; also in cells transfected with RanBPM shRNA #1 and #2 (interaction decreased)

binding: binds
Substance: endogenous Mgl-1 (MDCK cells) (canine (endogenous in MDCK))

Results are given in words; binding and its absence hold for the method and conditions named. In cells and extracts the contact can be indirect. Binding can be weak; no strength is given.
